Data on two substances can be found in US12535491B2, “Vaccine comprising protein-targeted (PT) extracellular DNA isolated from bacterial matrix” (priority 2018, dated 2026).

The data set relates to heat-resistant proteins of human plasma. The experiment in a line: LC/MS of heat-resistant proteins in plasma after exposure to proteinase K and boiling. The conditions noted are these: for N-plasma + pk: LC/MS, control plasma with added proteinase K, heated at 100° C. for 5 minutes.

With CO3_HUMAN, the “N-plasma + pk” value was 88. In addition, the “Effect (N-plasma + pk vs N-plasma)” value (change on adding proteinase K to normal plasma) is “↑”.
Turning to PLMN_HUMAN, the “N-plasma + pk” value was found to be 22.
